Reference: publication PMC7343504
These are yes or no findings as the source states them, for the method shown. In cells and extracts the contact can be indirect. Some binding calls cover weakened binding; strength is not graded here.

Chains of the proteins cited; added tags and fusions are not shown.
UniProt P59941: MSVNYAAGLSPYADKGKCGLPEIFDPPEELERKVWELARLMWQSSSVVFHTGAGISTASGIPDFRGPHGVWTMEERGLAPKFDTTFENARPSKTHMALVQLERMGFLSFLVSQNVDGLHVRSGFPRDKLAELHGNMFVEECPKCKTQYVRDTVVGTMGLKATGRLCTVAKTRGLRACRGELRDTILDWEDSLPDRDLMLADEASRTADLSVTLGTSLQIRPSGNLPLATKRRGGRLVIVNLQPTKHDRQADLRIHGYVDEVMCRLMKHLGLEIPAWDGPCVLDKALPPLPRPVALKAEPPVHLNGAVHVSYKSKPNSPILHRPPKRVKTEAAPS

Target: SIRT6 (mouse (endogenous in MEF)) (UniProt P59941)
Assay: co-IP; cleared MEF lysate (20 mM Hepes pH 8.0, 0.2 mM EDTA, 5% glycerol, 150 mM NaCl, 1% NP40) incubated overnight with antibodies against SIRT6, protein A agarose; blot for KDM2A; before and after irradiation (IR)

B1: lysine demethylase JHDM1A/KDM2A (enzyme, UniProt P59997 1-1161)
chain: MEPEEERIRYSQRLRGTMRRRYEDDGISDDEIEGKRTFDLEEKLQTNKYNANFVTFMEGKDFNVEYIQRGGLRDPLIFKNSDGLGIKMPDPDFTVNDVKMCVGSRRMVDVMDVNTQKGIEMTMAQWTRYYETPEEEREKLYNVISLEFSHTRLENMVQWPSTVDFIDWVDNMWPRHLKESQTESTNAILEMQYPKVQKYCLISVRGCYTDFHVDFGGTSVWYHIHQGGKVFWLIPPTAHNLELYENWLLSGKQGDIFLGDRVSDCQRIELKQGYTFVIPSGWIHAVYTPTDTLVFGGNFLHSFNIPMQLKIYSIEDRTRVPNKFRYPFYYEMCWYVLERYVYCITNRSHLTKDFQKESLSMDMELNELESGNGDEEGVDREARRMNNKRSVLTSPVANGVNLDYDGLGKACRSLPSLKKTLSGDSSSDSTRGSHNGQVWDPQCSPKKDRQVHLTHFELEGLRCLVDKLESLPLHKKCVPTGIEDEDALIADVKILLEELASSDPKLALTGVPIVQWPKRDKLKFPTRPKVRVPTIPITKPHTMKPAPRLTPVRPAAASPIVSGARRRRVRCRKCKACVQGECGVCHYCRDMKKFGGPGRMKQSCVLRQCLAPRLPHSVTCSLCGEVDQNEETQDFEKKLMECCICNEIVHPGCLQMDGEGLLNEELPNCWECPKCYQEDSSDKAQKRKIEESDEEAVQAKVLRPLRSCEEPLTPPPHSPTSMLQLIHDPVSPRGMVTRSSPGAGPSDHHSASRDERFKRRQLLRLQATERTMVREKENNPSGKKELSEVEKAKIRGSYLTVTLQRPTKELHGTSIVPKLQAITASSANLRPNPRVLMQHCPARNPQHGDEEGLGGEEEEEEEEEEDDSAEEGGAARLNGRGSWAQDGDESWMQREVWMSVFRYLSRKELCECMRVCKTWYKWCCDKRLWTKIDLSRCKAIVPQALSGIIKRQPVSLDLSWTNISKKQLTWLVNRLPGLKDLLLAGCSWSAVSALSTSSCPLLRTLDLRWAVGIKDPQIRDLLTPPTDKPGQDNRSKLRNMTDFRLAGLDITDATLRLIIRHMPLLSRLDLSHCSHLTDQSSNLLTAVGSSTRYSLTELNMAGCNKLTDQTLFFLRRIANVTLIDLRGCKQITRKACEHFISDLSINSLYCLSDEKLIQKIS
- binding: binds
